# Experimental data published in PubChem BioAssay AID1273 (Columbia University Molecular Screening Center, 2008).
# Values joined by “and” are separate entries in the source; they are usually repeats but may differ in a detail not shown here. Equal values may be shown once. Some of the results follow. These are further read-outs of the screen, such as a control signal, another cell line or another target. No call is given for them. Compounds called inactive in the main read-out are mostly missing here.
# Experiment: insulin gene promoter suppression in islet cells – imaging, TRM-6 cells (human fetal islet line), eGFP reporter, cell count, primary screen (AID 1273;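 further: cells exposed to compound for 48 h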)
# Conditions: measured here: cell count, toxicity, at 2 µM, reporter expression induced with tamoxifen
row,SMILES,normalized cell count
1,CCOC(=O)c1nn(-c2ccc(C)cc2)c(C)c1C(C)=O,83.6%
2,O=C(Nc1ccc(Br)c(Cl)c1)C1CC1,108%
3,COc1ccccc1NC(=S)N1CCCc2ccccc21,71.8%
4,O=C(C1CCN(c2nnc(-n3cccc3)s2)CC1)N1CCOCC1,63%
5,COC(=O)c1ccc(CSc2nc3ccccc3o2)cc1,84.2%
6,Cc1cc(NS(=O)(=O)c2ccc(NC(=O)c3oc4ccccc4c3C)cc2)no1,104%
7,CCNc1nc(NCC)nc(N(n2cnnc2)S(=O)(=O)c2ccc(C)cc2)n1,59.3%
8,Cc1csc(NC(=O)CS(=O)(=O)c2ccccc2)n1,108%
9,CCOC(=O)N1CCN(c2ncnc3c2[nH]c2ccc(OC)cc23)CC1,164%
10,CCCN1Cc2cccc(C(=O)NC3CCCC3)c2C1=O,204%
11,Cc1cc(/C=C2/C(=N)N3C(=NC2=O)SN=C3S(C)(=O)=O)c(C)n1-c1ccc(F)cc1,168%
12,Cc1ccc(C)c(OCC(=O)N2CCOCC2)c1,38.9%
13,COc1ccc(-c2cc(Nc3ccccc3NC(=O)C(F)(F)F)n(CCC#N)n2)cc1,194%
14,CCCOc1cccc(OCCSc2nc(C)cc(=O)[nH]2)c1,143%
15,CCOC(=O)c1nn(-c2ccccc2)c2nnc(Cc3ccc(C)cc3)c(=O)n12,111%
16,CCOc1ccccc1N(CC(=O)Nc1ccc2c(c1)OCCO2)S(C)(=O)=O,67.5%
17,Cc1ccc2nc(-c3ccccc3O)c(Nc3ccc4c(c3)OCCO4)n2c1,144%
18,CCCCn1c(-c2ccc(Cl)cc2)nc2c(=O)n(C)c(=O)[nH]c21,97.5%
19,Cc1nnc2c(NC3CCCC3)nc3ccccc3n12,62.3%
20,CCCCOc1ccc(S(=O)(=O)NCc2csc(C)n2)cc1,156%
21,COCCCNC(=O)c1ccccc1SC,78.6%
22,Cc1ccccc1Cn1ccc(NC(=O)c2nn(C)cc2[N+](=O)[O-])n1,79.7%
23,COc1cc2[nH]c(=O)n(CCCCCC(=O)NCCc3c[nH]c4ccccc34)c(=O)c2cc1OC,67.2%
24,Cc1cc(C)nc(NS(=O)(=O)c2ccc(N/C=C\C(=O)c3ccc(Cl)cc3)cc2)n1,95.9%

row,SMILES,normalized cell count
1,CCOC(=O)CSc1nc2cc(OC)ccc2cc1C#N,198%
2,CCCCCCn1c(CN2CCN(CCO)CC2)nc2c1c(=O)n(C)c(=O)n2C,78.2%
3,CN(C)c1nc(NC(C)(C)C)nc(SCC(=O)Nc2ccccc2)n1,85.2%
4,O=[N+]([O-])c1cc(Cl)cc(C2=NCCN2)c1,83.5%
5,CCOc1ccc2nc(NC(=O)CN3CCC(n4nnc5cc(C(F)(F)F)ccc54)CC3)sc2c1,54.2%
6,CCn1nnc2sc3c(c2c1=O)CCC(C)C3 (stereo unspecified),97.9%
7,O=C(OCc1ccc([N+](=O)[O-])cc1)C1CC(=O)N(c2ccccc2)C1 (stereo unspecified),104%
8,CCC(=O)Nc1cccc(C(=O)/C=C/c2cc(Br)ccc2OC)c1,104%
9,Cc1ccccc1S(=O)(=O)c1cc(C#N)c(=O)[nH]c1N,105%
10,CN(C)C(=O)CN(c1ccc2c(c1)OCO2)S(C)(=O)=O,73.5%
11,CCCC(=O)Nc1nnc(COC)s1,65.3%
12,Cn1c(C(=O)N2CCN(C(=O)c3ccco3)CC2)cc2c(=O)n3ccccc3nc21,118%
13,COCn1c(-c2ccc(OC)cc2)nc2ccccc21,124%
14,Clc1ccccc1-c1nc(-c2cccnc2)no1,78.9%
15,CCN(CC)CCCN1CC(O)=C(c2nc3ccccc3s2)C1=N,38.3%
16,Cc1ccc(NC(=S)Nc2cc(-c3ccccc3)[nH]n2)cc1Cl,109%
17,CCN1C(=O)/C(=C/c2nc3ccccc3c(=O)[nH]2)c2ccccc21,148%
18,c1ccc(Nc2nc3ccccc3o2)cc1,82.6%
19,c1cncc(-c2nc(-c3cccs3)cs2)c1,132%
20,COc1ccc(CN(C)CC(=O)Nc2cc(OC)c([N+](=O)[O-])cc2C)c(OC)c1,62%
21,Cc1cc(C)n(-c2nc3c(c(=O)n(Cc4ccc(Cl)c(Cl)c4)c(=O)n3C)n2C)n1,71.3%
22,CCOc1nc(NC2CCCCC2)nc(NC(C)(C)C)n1,101%
23,Cc1c(C(=O)NCc2cccnc2)oc2c1C(=O)CC(C)(C)C2,51%
24,COc1ccc(N2CCN(C(CNC(=O)c3cccc(Cl)c3)c3cccnc3)CC2)cc1 (stereo unspecified),54.8%

# In the list so far, these contain an aryl thioether with sulfur outside any ring.
row,SMILES,normalized cell count
5,COC(=O)c1ccc(CSc2nc3ccccc3o2)cc1,84.2%
14,CCCOc1cccc(OCCSc2nc(C)cc(=O)[nH]2)c1,143%
21,COCCCNC(=O)c1ccccc1SC,78.6%
1,CCOC(=O)CSc1nc2cc(OC)ccc2cc1C#N,198%
3,CN(C)c1nc(NC(C)(C)C)nc(SCC(=O)Nc2ccccc2)n1,85.2%

# More entries.

row,SMILES,normalized cell count
1,S=C(c1nc2ccccc2[nH]1)N1CCOCC1,120%
2,CC(=O)NC1=NC(=O)CS1,137%
3,O=C(c1ccccc1)c1ccccc1C(=O)N1CCOCC1,126%
4,CCOc1c(C)cc(-c2ncccc2O)cc1C,162% and 160%
5,Cc1nc2cc(C(F)(F)F)ccc2n1C,153%
6,CCCn1c(CCc2ccccc2)nnc1SCC(=O)N1CCOCC1,108%
7,COC(=O)/C(C#N)=C1/C=Cc2ccccc2N1C,194%
8,O=C1C2C3C=CC(C3)C2C(=O)N1c1ccc(N2CCN(c3ccccn3)CC2)c([N+](=O)[O-])c1 (stereo unspecified),105%
9,CCC(C(=O)Nc1cc(C)on1)c1ccccc1 (stereo unspecified),49.5%
10,O=C(Oc1ccc(NC2=C(Cl)C(=O)c3ccccc3C2=O)cc1)c1ccc([N+](=O)[O-])cc1,112%
11,O=C(Nc1ccc(Nc2ccccc2)cc1)C1CC1,120%
12,CC(=O)Nc1ccc(NC(=O)Cc2ccc(S(=O)(=O)N3CCCCC3)s2)cc1,150%
13,COc1ccccc1/C=C/C(=C1/C(=O)N(c2ccccc2)N=C1C)c1ccc(C)cc1,188%
14,O=C(NC(=S)Nc1ccc(N2CCOCC2)cc1)c1cncc(Br)c1,92.5%
15,O=C(Cn1cnc2ccccc2c1=O)Nc1ccc(-c2nnc3n2CCCCC3)cc1,41.2%
16,Cc1ccc(-n2nc3c(N4CCN(c5ccccc5)CC4)nnc(C)c3c2C)cc1,94.8%
17,CC(=O)N(CC(C)(C)CC=C(C)C)c1ccccc1,125%
18,COc1ccc(N2CCN(c3ccc(N4C(=O)CC(C)C4=O)cc3[N+](=O)[O-])CC2)cc1 (stereo unspecified),102%
19,CC(C)Oc1ccc(NC(=O)c2ccncc2)cc1,119%
20,Cc1nnc(-c2cnn(C)c2N)n1Cc1cccc(Cl)c1,53.9%
21,CCCCC(=O)Nc1ccccc1C(=O)N1CCOCC1,72%
22,CSCCC(NS(=O)(=O)c1ccc(Br)cc1)C(=O)OCC(=O)NC1CC1 (stereo unspecified),30.6%
23,O=C(NS(=O)(=O)c1ccccc1)c1ccccc1,95.8%
24,CC(C)c1nc2cc3ccccc3cc2[nH]1,137%

row,SMILES,normalized cell count
1,COc1ccc(-n2c(SCCC(=O)O)nnc2-c2ccncc2)cc1,121%
2,COc1ccc(S(=O)(=O)Nc2ccc3c(c2)OCO3)cc1C,94%
3,COc1ccc(C(=O)Cn2c(NCCO)nc3ccccc32)cc1OC,128%
4,CCOc1cc(S(=O)(=O)n2nc(C)cc2C)ccc1F,81.4%
5,Clc1ccccc1N/N=C/c1ccc2c(c1)OCO2,89.2%
6,CC(=O)Nc1ccc(NS(=O)(=O)c2ccc(Cl)c(C(=O)O)c2)cc1,21.6%
7,Cc1ccc(S(=O)(=O)NCCC(c2ccccc2)c2ccccc2)cc1C(=O)O,90.3%
8,CN(C)C(C)(C)C#CCCCCC#CC(C)(C)N(C)C,71.4%
9,Cc1ccc(-n2c(=O)c3ccccc3n(CC(=O)NCc3ccco3)c2=O)cc1,91.5%
10,CN(C)CCC(=O)c1ccc2c(c1)OCO2,89.4%
11,Cc1cc(C)nc(N(C#N)S(=O)(=O)c2ccccc2)n1,57.7%
12,CCCC(=O)Nc1sc2c(c1C(=O)OCC)CC(C)(C)OC2,124%
13,CCOC(=O)c1c(N2C(=O)Nc3ccccc3N2O)n[nH]c1-c1cccc(Cl)c1,126%
14,COc1cc(-c2nnc(SCC(=O)N3c4ccccc4Sc4ccccc43)o2)cc(OC)c1OC,30.6%
15,N#C/C(=C/c1cccs1)c1nc2ccccc2[nH]1,218%
16,CC(C)c1nc(-c2ccccc2)c(-c2ccccc2)[nH]1,141%
17,CC1CCCC(N2CCN(C(=O)c3cccc(F)c3)CC2)C1 (stereo unspecified),158%
18,Cc1cc2cc(CNS(=O)(=O)N(C)C)ccc2[nH]1,93.1%
19,Cc1ccc(S(=O)(=O)N2CCSC2C(=O)O)cc1 (stereo unspecified),99.2%
20,CSc1nc2cc(F)c(F)cc2n1C,179%
21,CCOC(=O)c1cnc2c(C)cccc2c1NCc1ccco1,129%
22,CN(C)c1nc(NS(=O)(=O)c2ccc(Cl)cc2)nc(N(C)C)n1,65.6%
23,Nc1nc(SCC(=O)Nc2ccc(Br)cc2F)n[nH]1,125%
24,CC1(C)COC(c2coc3ccccc3c2=O)OC1,0%

row,SMILES,normalized cell count
1,CCn1c(C)nc2cc(OC)ccc21,141%
2,Cc1ccc2nc(NNC(=O)c3ccc(S(=O)(=O)N4CCc5ccccc5C4)cc3)sc2c1,53.4%
3,CCOC(=O)CSc1nc2cc(C)ccc2cc1C#N,60.4%
4,O=C(CCCN1C(=O)CCC1=O)Nc1cccc(C(F)(F)F)c1,135%
5,Cc1ccc(C(=O)NC(=S)Nc2nc(-c3cccc([N+](=O)[O-])c3)cs2)c(Cl)c1,57%
6,CCOC(=O)CSc1nc(C)c2ccccc2n1,54.2%
7,COc1ccc(-c2nc(SC)n(S(=O)(=O)c3ccccc3)n2)cc1,136%
8,c1ccc(Cc2nnc3sc(-c4cccs4)nn23)cc1,177%
9,COc1ccccc1N1CCN(S(=O)(=O)Cc2ccccc2Cl)CC1,115%
10,COc1ccc2nc(C)c3cc(C)oc3c2c1,48%
11,COc1ccc(-c2n[nH]c3c2C(c2ccc(OC)c(OC)c2)N(c2ccccc2)C3=O)cc1 (stereo unspecified),68%
12,Cc1noc(C)c1COc1ccc(C(=O)OC(C)C(=O)Nc2ccc(N3CCOCC3)cc2)cc1 (stereo unspecified),90%
13,C(=C1/CCCC2=C1Nc1ncnn1C2c1ccccc1)/c1ccccc1 (stereo unspecified),52.1%
14,C=CCSc1ncc(C(=O)OCC)c(N)n1,181%
15,CN(Cc1nc2ccccc2n1C)S(=O)(=O)c1ccc(F)cc1,154%
16,O=C1OC2CC3CC1CC(O)(C3)C2 (stereo unspecified),101%
17,CCC(=O)N/C(N)=N/c1nc(C)c2cc(OC)ccc2n1,139%
18,CC1CN(S(=O)(=O)c2ccc(C(=O)Nc3sc4c(c3C(N)=O)CCN(C)C4)cc2)CC(C)O1 (stereo unspecified),127%
19,O=c1c2[nH]c3ccc(Br)cc3c2ncn1CCCn1ccnc1,133%
20,Clc1ccc2nc(N3CCCCC3)[nH]c2c1,139%

# Fetched one by one from the list above:
row,SMILES,normalized cell count
18,CC1CN(S(=O)(=O)c2ccc(C(=O)Nc3sc4c(c3C(N)=O)CCN(C)C4)cc2)CC(C)O1 (stereo unspecified),127%
12,Cc1noc(C)c1COc1ccc(C(=O)OC(C)C(=O)Nc2ccc(N3CCOCC3)cc2)cc1 (stereo unspecified),90%
14,C=CCSc1ncc(C(=O)OCC)c(N)n1,181%
3,CCOC(=O)CSc1nc2cc(C)ccc2cc1C#N,60.4%
